Data as given in PubChem BioAssay AID504804 (Drosophila RNAi Screening Center, 2011).

- Screen: 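dsRNAs that improve Kc cell survival under doxorubicin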 (primary screen)
- Cells: Drosophila Kc cells
- Reagent: long dsRNA against Drosophila genes, 0.5 µg dsRNA per well
- Timing: 96 h (48 h knock-down, then 48 h drug)
- Treatment: doxorubicin 5 µg/ml for 48 h, added 48 h after dsRNA
- Measurement: 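Luminescent ATP counts per replicate, not normalised, reflecting viable cells after 48 h dsRNA knock-down followed by 48 h of 5 µg/ml doxorubicin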
- Scale: raw ATP luminescence: higher = more viable cells, protection from doxorubicin
- Active means: 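z-score of 2 or more over plate mean in both duplicates, retained only when retests and separate dsRNAs confirm the protection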
The deposit covers about 19,000 reagents; this is an unselected part of those that have a named target and a result. In the full data, 47 (0.25%) are marked active. 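Signals are raw, not normalised; exact z-scores behind calls not deposited; actives needed confirmation, so some wells reaching 2 SD are inactive.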 Reagent sequences are not shown.

CG16786 (GeneID 37856) [DRSC04281] → raw ATP luminescence, replicate 1: 61173; raw ATP luminescence, replicate 2: 46403; outcome: inactive
CG6071 (GeneID 39308) [DRSC10579] → raw ATP luminescence, replicate 1: 70260; raw ATP luminescence, replicate 2: 61913; outcome: inactive
PrBP (GeneID 34196) [DRSC03189] → raw ATP luminescence, replicate 1: 40367; raw ATP luminescence, replicate 2: 60277; outcome: inactive
CG12885 (GeneID 43308) [DRSC14572] → raw ATP luminescence, replicate 1: 29900; raw ATP luminescence, replicate 2: 38670; outcome: inactive
CG42500 (GeneID 50032) [DRSC14822] → raw ATP luminescence, replicate 1: 1.25e5; raw ATP luminescence, replicate 2: 63950; outcome: inactive
mRpL3 (GeneID 32523) [DRSC20100] → raw ATP luminescence, replicate 1: 3.61e5; raw ATP luminescence, replicate 2: 3.13e5; outcome: inactive
CG11334 (GeneID 43713) [DRSC14066] → raw ATP luminescence, replicate 1: 2.19e5; raw ATP luminescence, replicate 2: 2.14e5; outcome: inactive
CG11334 (GeneID 43713) [DRSC14302] → raw ATP luminescence, replicate 1: 55640; raw ATP luminescence, replicate 2: 60580; outcome: inactive
robls54B (GeneID 5740248) [DRSC05660] → raw ATP luminescence, replicate 1: 1.80e5; raw ATP luminescence, replicate 2: 1.47e5; outcome: inactive
RpL23 (GeneID 37628) [DRSC04648] → raw ATP luminescence, replicate 1: 30610; raw ATP luminescence, replicate 2: 28033; outcome: inactive
Cpr73D (GeneID 39897) [DRSC11084] → raw ATP luminescence, replicate 1: 25280; raw ATP luminescence, replicate 2: 23383; outcome: inactive
SmydA-2 (GeneID 40075) [DRSC10296] → raw ATP luminescence, replicate 1: 78757; raw ATP luminescence, replicate 2: 66063; outcome: inactive

2 consecutive records already listed, for reference:
RpL23 (GeneID 37628) [DRSC04648] → raw ATP luminescence, replicate 1: 30610; raw ATP luminescence, replicate 2: 28033; outcome: inactive
Cpr73D (GeneID 39897) [DRSC11084] → raw ATP luminescence, replicate 1: 25280; raw ATP luminescence, replicate 2: 23383; outcome: inactive
